Primary screen of a compound library

Protein sequences, listed by entry. Tags and fused reporters are not part of them. Residues count along the entry.
UniProt Q8IDJ8, 1-583: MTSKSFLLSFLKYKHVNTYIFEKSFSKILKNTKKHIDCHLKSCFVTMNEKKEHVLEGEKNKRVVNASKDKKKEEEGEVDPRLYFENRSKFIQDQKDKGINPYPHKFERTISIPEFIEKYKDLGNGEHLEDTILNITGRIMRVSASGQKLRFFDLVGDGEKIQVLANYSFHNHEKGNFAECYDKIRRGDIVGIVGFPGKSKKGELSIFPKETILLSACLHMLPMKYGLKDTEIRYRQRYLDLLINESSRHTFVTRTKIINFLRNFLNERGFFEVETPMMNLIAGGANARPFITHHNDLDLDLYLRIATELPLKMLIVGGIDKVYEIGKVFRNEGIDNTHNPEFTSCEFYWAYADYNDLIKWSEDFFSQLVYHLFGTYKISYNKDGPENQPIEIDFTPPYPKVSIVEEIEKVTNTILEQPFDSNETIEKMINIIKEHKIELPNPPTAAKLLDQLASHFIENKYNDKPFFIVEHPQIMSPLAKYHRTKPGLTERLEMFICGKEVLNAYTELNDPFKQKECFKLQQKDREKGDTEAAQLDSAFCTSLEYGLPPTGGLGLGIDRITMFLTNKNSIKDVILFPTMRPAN
UniProt P9WFT3, whole entry: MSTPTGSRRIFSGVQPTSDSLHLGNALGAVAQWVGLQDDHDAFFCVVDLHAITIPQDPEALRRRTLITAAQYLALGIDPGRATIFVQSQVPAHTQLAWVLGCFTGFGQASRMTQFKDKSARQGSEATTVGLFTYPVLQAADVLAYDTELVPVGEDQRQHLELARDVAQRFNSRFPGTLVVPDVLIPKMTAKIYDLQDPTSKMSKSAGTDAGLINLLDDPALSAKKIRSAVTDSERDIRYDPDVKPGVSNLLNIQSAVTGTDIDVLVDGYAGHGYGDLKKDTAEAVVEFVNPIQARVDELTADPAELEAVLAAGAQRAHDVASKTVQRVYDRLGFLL
UniProt P9WPC5, whole entry: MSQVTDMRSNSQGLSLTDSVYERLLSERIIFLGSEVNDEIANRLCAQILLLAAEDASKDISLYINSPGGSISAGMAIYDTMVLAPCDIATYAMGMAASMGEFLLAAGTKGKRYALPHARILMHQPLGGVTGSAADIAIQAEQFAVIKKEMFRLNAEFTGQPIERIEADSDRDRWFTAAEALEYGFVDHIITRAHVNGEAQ
UniProt P9WPC3, whole entry partner: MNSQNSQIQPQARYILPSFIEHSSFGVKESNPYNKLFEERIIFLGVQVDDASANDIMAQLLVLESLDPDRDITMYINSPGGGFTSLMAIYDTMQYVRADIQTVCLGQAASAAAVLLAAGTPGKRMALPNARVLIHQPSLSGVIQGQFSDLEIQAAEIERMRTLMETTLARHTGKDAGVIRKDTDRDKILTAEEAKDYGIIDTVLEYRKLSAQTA
UniProt Q4DA54, 1-478: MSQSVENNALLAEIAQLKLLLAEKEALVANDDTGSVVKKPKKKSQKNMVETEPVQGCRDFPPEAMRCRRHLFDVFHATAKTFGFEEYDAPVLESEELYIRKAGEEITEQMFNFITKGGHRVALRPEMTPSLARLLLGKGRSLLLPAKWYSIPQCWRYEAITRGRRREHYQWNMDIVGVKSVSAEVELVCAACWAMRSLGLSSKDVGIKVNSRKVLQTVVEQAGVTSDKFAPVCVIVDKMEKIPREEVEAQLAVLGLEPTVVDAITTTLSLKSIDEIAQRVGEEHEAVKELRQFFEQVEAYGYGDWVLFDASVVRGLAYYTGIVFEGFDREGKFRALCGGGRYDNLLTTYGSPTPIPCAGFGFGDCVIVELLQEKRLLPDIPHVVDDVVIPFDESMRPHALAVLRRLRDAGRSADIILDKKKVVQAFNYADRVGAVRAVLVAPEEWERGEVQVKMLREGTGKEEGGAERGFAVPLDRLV

From ChEMBL document CHEMBL3988442, “University of Dundee, Small-Polar-MMV Screening Library” (2021).

Results are given as percent effect.
The controls that fix the scale are not given in the record; negative values are as filed.
The compounds are a random part of those screened.
A dash means the value is not listed here; it may have been measured.

A: 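Enzyme assay of the cytosolic lysyl-tRNA synthetase in 384-well plates, read by luminescence. Target: Lysine-tRNA ligase, Plasmodium falciparum 3D7 (UniProt Q8IDJ8). Tested at 30 µM. Higher reads as stronger inhibition, judged from the few compounds that gave an IC50. Of about 69,000 compounds tested this way, about 49 (0.071%) reached 50% or more in at least one test.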
B: 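Tryptophan-tRNA ligase, Mycobacterium tuberculosis (UniProt P9WFT3). Enzyme assay of tryptophanyl-tRNA synthetase; the read-out is not stated. Concentration: 10 µM. Direction is not recorded; retested compounds ran higher, which suggests that high means inhibition. Of about 65,000 compounds tested this way, about 64 (0.098%) reached 50% or more in at least one test.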
C: 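ClpP1P2, Mycobacterium tuberculosis (UniProt P9WPC5 and UniProt P9WPC3). Protease assay of ClpP1P2, read by the AMC dye that it sets free. Tested at 50 µM. Higher reads as stronger inhibition, judged from the few compounds that gave an IC50. Most other retested compounds had strongly negative values. Size under these conditions: about 69,000 compounds, about 10 of them at 50% or above in at least one test.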
D: 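Enzyme assay of histidyl-tRNA synthetase; the read-out is not stated. Target: Histidine-tRNA ligase, Trypanosoma cruzi CL Brener (UniProt Q4DA54). Compounds at 30 µM. Direction is inferred from retests: higher values go with stronger inhibition. Of about 69,000 compounds tested this way, about 31 (0.045%) reached 50% or more in at least one test.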

structure,A,B,C,D
CC(c1ccc(Cl)cc1)N1CCN(CCCS(C)(=O)=O)CC1 (centres unmarked),-1.053,-3.054,-17.05,5.155
N#CCCN(Cc1cccnc1)C(=O)c1cccc(-n2cnnn2)c1,0.2055,0.1271,-8.795,8.621
Cc1ccc(C(=O)NCCNC(=O)c2cncnc2C(C)C)cc1F,4.084,-6.748,5.031,-2.128
CC(O)(CN1CCC(O)CC1)c1cccc(C(F)(F)F)c1 (centres unmarked),0.8714,12.91,-15.74,4.571
CCn1nc2c(cc1=O)CN(c1nc3ccccc3s1)CC2,-1.902,1.009,2.13,7.609
Cn1ccc(C(=O)N2CCOC3(COCCN(CC4CC4)C3)C2)n1 (centres unmarked),3.602,-,-2.613,15.08
COc1ccc(C)cc1-n1cnnc1C1CCOCC1,0.8016,0.1715,-10.15,5.556
CC(C)CCC(C)NC(=O)CN1C=Nc2ccccc2S1(=O)=O (centres unmarked),0.2646,0.8839,-12.81,1.734
O=C(c1ccc(Br)o1)N1CCN(Cc2ccc(OC(F)(F)F)cc2)CC1,-3.466,-4.205,2.938,7.438
CCn1nc(C)c2c1cnn2CCNS(=O)(=O)c1cccs1,3.926,1.528,2.159,6.696
CN(C)C(=O)c1ccc(CNC(=O)NCCN(C)C2CCCC2)cc1,2.769,-3.365,6.653,2.256
O=C(CN1CCCC1Cn1cncn1)Nc1nccs1 (centres unmarked),3.205,2.928,-17.23,6.696
CN(C)CCO[C@H]1C[C@@H](O)C12CCN(c1nccc3ccccc13)CC2,21.55,5.289,-6.324,3.361
Cc1cc(=O)n(CC(=O)NCC2CCCO2)c(-c2cccc(Cl)c2)n1 (centres unmarked),2.955,-2.237,-8.535,0.8368
COc1ccc(-n2cc(CNC(=O)c3ccccn3)nn2)cc1,1.918,-1.144,-17.34,6.25
CCc1nnc2n1CCN(C(=O)c1ccc3c(c1)nnn3C)C2,6.659,1.018,-19.98,2.232
CCS(=O)(=O)N1CCCC(c2ccnc(N(C)C)c2)C1 (centres unmarked),-0.7901,-0.4706,-11.96,1.521
O=C(c1ccncc1)N1CCN(Cc2cccnc2)c2ncccc2C1,0.7076,-0.9752,-9.089,11.43
O=C(NCCn1ccnc1)N1CCCC1c1ccncc1 (centres unmarked),0.4618,-2.406,-11.88,6.158
O=S1(=O)NCC2(CCN(c3ncc(F)cn3)CC2)COc2ccccc21,12.25,1.187,10.21,12.66
CC1CCCN(Cc2cccc(C(=O)Nc3nccs3)c2)C1 (centres unmarked),1.663,-7.529,-6.512,12.71
COc1cccc(-c2nc(CNCCn3cccn3)cs2)c1,1.219,-10.47,0.8379,3.817
CS(=O)(=O)N1CC(c2ncn3ccccc23)C1,7.337,5.5,-12.2,5.882
CC(C)NC(=O)N1C[C@@H](F)[C@@H](OCc2nc3ccccc3o2)C1,-4.868,-3.718,-8.617,-2.174
CCN(CC1CCOC1)C(=O)c1nc(-c2ccco2)sc1C (centres unmarked),5.315,-3.569,-0.6181,3.784
COCCN1CCN(Cc2noc(C3CC3)n2)CC1C (centres unmarked),9.161,3.698,18.1,-3.759
CC(C)(C)c1nnc(CN2CCN(C(=O)N3CCCCC3)CC2)o1,4.531,-1.323,-0.8272,5.911
CS(=O)(=O)N1C[C@H]2CCCN(Cc3ccsc3)[C@H]2C1,-2.304,11.91,-1.32,2.151
O=C(NCC(O)c1ccc(F)cc1F)c1ccccc1F (centres unmarked),4.583,-1.701,3.661,2.041
CCn1ncc2[nH]c(-c3cc(OC)c(OC)cc3OC)nc21,-5.603,1.83,-7.222,4.721
CC(=O)c1ccc(CNC(=O)c2cc(C)nn2C)nc1C,6.191,-4.938,0.3378,0
O=C1CO[C@H]2CN(Cc3cccnc3)C[C@H]2N1,-6.507,4.476,-7.484,-2.174
CN(C)C(C(=O)NCC(F)(F)F)c1cccc(F)c1 (centres unmarked),3.027,-5,-9.856,7.538
COc1ncc(C2CC(=O)NCc3nc4ccccn4c32)cn1 (centres unmarked),7.895,0.4177,-1.972,3.306
COc1ccc(F)cc1C[S+]([O-])CC(=O)NCC(C)C (centres unmarked),2.191,-2.999,8.928,0
Cc1ncc(C(=O)OCC2CCN(c3ccccc3)C2)s1 (centres unmarked),-0.6178,3.599,-3.124,4.294
COc1ccccc1CN(Cc1cccnc1)Cc1c[nH]c(C)n1,-1.7,2.314,1.896,1.571
COc1ccc(C[C@H]2CN(C(=O)CN(C)C)CC[C@H]2OC)cc1,7.033,4.198,0.3134,1.504
N#Cc1ccc(N2CCCN(CC(=O)N3CCNC(=O)C3)CC2)cc1,7.08,-2.3,1.486,9.244
CC(C)N(C)Cc1cnc2n1CCN(Cc1ccco1)C2,3.911,5.428,-4.862,3
O=C(c1cnc(Cc2c(Cl)cccc2Cl)nc1O)N1CCNCC1,2.093,-1.064,12.79,2.717
CCN(CC)Cc1ccccc1NC(=O)N(C)Cc1ccccc1O,6.937,-1.644,-5.371,7.216
CC(=O)Nc1nc(C(=O)N2CCCC2c2ccccc2C)cs1 (centres unmarked),1.959,-2.318,-8.6,-3.053
Cc1cccc(C(C(=O)NCC2(O)CCCCC2)N(C)C)c1 (centres unmarked),-3.767,15.18,-11.2,-0.5435
CC[C@H](C)Nc1ncc(-c2cccc(NC(=O)CNC)c2)cn1,4.875,-,0.703,14.69
Cc1nc2c(c(NC3CCN(Cc4ccccc4)CC3)n1)CCNCC2,2.983,-2.472,-9.36,1.212
CN(c1ccc(C(N)=O)nn1)C1CCC1,3.512,-0.2793,-2.151,5.056
O=C(NCC1Cn2nnc(-c3ccsc3)c2CO1)c1ccc[nH]1 (centres unmarked),3.627,-0.5231,10.53,5.785
N#Cc1ccc(Cl)cc1NCC1CC1,2.552,-3.179,-3.447,7.035
COc1cc2c(cc1OC)CCN(C(=O)Cn1nc(C)cc1C)CC2,4.196,-0.7346,-7.193,0.6494
CC(C)NC(=O)N1CCC2(CC1)CCn1c(C3CC3)cnc12,-6.089,9.787,-5.056,6.135
CC(C)NC(=O)[C@@H]1C[C@H](N)CN1C(=O)c1cc2c([nH]c1=O)CCCC2,8.032,-6.066,2.851,7.317
Cc1ccc(F)cc1S(=O)(=O)N1C[C@@H](C)[C@@](C)(O)C1,-8.568,2.407,-3.181,3.093
CCCN1CCCn2nc(CNS(=O)(=O)c3cccc(C#N)c3)cc2C1,-2.151,4.094,-10.27,4.132
Fc1cccc(OC2CCN(CCn3cc4ccccc4n3)CC2)c1,-3.317,0.6121,-31.85,9.453
CN1CCN(C(=O)c2csnn2)c2ccccc21,-1.333,-0.06915,-12.9,0
CN(Cc1cccnc1)C1CC2(CCN(c3ncc(F)cn3)CC2)C1,5.111,-2.344,5.441,9.195
Cn1nc(C2CN(C(=O)c3ccncc3)C2)c2nccnc21,0.5274,-,-3.71,8.511
CS(=O)(=O)N1CCC2(CCN(C(=O)c3cccnc3)CC2)C1,4.994,-2.853,-19.87,1.754
CCc1nc(CCn2cc(-c3nccn3C)nn2)no1,3.897,-5.717,-4.899,8.38
O=C(C1=CCCC1)N1C[C@H](Oc2cccnc2)[C@H]2OCCC[C@H]21,6.611,3.752,3.156,5.882